Results are given in words; binding and its absence hold for the method and conditions named.
Assays:
[1] = molecular target: intimin subdomains D0–D1 (enteropathogenic Escherichia coli (EPEC) strain E2348/69) (UniProt P19809); experiment: SAXS; concentration series in 10 mM HEPES-NaOH pH 7.5, 100 mM KCl; protein concentrated to ca. 28 mg/ml; OLIGOMER analysis with monomer models and crystal dimers for D00–D0; both purified
[2] = molecular target: intimin subdomains D0–D1 (enteropathogenic Escherichia coli (EPEC) strain E2348/69) (UniProt P19809); experiment: SEC-MALS; Superdex 75 10/300, 10 mM HEPES-NaOH pH 7.5, 100 mM KCl, different protein concentrations, 50 µl injected at 0.4 ml/min; both purified

Chains of the proteins cited; added tags and fusions are not shown. Residues count along the entry.
UniProt P19809, residues 555-753: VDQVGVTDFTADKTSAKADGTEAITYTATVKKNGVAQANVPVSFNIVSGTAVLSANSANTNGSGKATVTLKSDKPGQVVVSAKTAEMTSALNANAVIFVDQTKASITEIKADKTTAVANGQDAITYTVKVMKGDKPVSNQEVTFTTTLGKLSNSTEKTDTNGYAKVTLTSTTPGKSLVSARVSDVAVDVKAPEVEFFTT

intimin subdomains D0–D1 (from UniProt P19809 555-753) (domain or fragment)
binding [1]: no binding
binding [2]: no binding

From article PMC7718877
